Results: publication doi:10.1101/2020.03.15.992727

Chains of the proteins cited; added tags and fusions are not shown.
UniProt P56962: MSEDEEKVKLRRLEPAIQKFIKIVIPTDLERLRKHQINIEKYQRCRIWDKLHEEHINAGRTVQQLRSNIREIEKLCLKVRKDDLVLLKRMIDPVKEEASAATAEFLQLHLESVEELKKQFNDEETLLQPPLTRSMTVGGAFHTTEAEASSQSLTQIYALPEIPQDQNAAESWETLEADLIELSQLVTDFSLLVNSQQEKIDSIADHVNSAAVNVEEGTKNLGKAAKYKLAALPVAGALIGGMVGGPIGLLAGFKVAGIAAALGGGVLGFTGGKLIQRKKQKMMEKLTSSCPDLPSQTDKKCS
UniProt P46459: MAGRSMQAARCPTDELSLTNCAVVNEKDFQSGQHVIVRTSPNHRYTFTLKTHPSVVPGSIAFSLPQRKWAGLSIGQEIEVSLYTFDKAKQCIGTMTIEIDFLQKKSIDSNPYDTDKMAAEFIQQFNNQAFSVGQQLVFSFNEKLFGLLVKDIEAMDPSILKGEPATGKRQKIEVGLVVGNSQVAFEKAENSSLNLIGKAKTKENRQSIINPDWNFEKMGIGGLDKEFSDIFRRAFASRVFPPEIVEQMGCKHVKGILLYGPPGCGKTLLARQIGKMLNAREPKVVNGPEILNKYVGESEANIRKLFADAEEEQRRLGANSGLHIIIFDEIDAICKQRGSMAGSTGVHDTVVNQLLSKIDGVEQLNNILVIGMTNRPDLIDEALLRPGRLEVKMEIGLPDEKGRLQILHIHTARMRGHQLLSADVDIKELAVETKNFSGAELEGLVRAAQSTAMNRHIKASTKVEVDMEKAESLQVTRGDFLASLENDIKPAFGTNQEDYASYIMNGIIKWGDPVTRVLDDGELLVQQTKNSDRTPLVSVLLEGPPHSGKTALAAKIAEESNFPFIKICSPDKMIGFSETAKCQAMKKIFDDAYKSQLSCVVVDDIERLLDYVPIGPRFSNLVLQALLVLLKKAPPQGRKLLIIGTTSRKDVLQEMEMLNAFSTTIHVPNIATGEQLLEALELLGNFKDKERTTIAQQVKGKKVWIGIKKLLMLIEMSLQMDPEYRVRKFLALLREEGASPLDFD
UniProt A2RRP1: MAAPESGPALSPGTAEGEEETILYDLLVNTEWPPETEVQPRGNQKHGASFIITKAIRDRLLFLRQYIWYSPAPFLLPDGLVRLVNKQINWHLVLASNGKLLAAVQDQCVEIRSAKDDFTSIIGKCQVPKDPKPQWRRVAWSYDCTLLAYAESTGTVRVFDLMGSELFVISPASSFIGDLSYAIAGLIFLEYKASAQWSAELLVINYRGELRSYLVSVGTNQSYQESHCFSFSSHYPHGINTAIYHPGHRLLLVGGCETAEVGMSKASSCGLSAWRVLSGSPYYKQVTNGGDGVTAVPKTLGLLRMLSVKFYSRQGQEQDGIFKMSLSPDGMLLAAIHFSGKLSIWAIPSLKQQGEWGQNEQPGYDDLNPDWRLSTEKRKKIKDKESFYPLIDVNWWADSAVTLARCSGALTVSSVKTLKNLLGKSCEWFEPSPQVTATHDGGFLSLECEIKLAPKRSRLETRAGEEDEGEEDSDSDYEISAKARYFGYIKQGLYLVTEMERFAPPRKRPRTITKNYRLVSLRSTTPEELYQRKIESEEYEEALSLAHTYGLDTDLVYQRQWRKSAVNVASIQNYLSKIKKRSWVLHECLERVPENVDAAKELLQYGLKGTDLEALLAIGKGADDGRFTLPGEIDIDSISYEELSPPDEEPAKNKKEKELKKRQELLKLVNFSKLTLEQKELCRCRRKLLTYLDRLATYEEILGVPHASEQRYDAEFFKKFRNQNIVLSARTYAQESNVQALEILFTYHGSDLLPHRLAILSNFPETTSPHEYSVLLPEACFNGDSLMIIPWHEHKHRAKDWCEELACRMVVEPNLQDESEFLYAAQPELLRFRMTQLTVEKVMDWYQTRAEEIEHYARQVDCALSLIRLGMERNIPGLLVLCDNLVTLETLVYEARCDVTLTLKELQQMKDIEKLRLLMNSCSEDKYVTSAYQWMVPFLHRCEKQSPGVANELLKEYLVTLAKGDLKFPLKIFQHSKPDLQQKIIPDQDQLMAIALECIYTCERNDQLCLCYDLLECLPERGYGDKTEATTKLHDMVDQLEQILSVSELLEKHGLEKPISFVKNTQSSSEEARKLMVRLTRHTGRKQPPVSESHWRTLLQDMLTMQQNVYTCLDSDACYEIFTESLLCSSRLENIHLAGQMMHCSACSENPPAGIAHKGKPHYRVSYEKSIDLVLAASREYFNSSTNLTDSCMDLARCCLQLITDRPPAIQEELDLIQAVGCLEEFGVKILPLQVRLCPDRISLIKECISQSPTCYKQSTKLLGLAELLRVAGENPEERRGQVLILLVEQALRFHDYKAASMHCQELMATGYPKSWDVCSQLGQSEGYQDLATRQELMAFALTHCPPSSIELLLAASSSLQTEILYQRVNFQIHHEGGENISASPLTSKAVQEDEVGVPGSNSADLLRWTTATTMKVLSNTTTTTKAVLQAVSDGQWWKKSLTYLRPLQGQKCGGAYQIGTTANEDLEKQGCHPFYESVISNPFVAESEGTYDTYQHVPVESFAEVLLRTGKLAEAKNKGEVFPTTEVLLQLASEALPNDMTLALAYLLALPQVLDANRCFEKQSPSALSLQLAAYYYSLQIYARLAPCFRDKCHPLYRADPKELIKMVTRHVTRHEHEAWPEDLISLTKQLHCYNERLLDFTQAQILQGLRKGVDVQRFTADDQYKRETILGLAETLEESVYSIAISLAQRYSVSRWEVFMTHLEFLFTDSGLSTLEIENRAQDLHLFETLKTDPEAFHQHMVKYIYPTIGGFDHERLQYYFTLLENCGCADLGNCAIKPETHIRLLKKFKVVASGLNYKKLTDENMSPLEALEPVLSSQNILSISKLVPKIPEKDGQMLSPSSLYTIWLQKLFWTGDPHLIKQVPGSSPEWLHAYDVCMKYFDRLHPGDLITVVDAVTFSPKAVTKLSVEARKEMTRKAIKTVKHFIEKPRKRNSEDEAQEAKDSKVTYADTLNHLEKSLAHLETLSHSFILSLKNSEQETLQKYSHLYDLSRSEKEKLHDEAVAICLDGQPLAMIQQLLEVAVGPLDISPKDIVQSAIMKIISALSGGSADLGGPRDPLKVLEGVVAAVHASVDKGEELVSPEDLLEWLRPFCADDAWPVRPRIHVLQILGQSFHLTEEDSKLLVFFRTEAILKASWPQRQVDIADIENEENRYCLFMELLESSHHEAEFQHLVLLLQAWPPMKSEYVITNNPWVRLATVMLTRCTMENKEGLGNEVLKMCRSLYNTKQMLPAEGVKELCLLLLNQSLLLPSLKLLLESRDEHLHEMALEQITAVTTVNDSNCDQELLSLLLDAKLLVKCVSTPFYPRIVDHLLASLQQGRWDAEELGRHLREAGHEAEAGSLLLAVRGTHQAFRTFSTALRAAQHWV

B1: SNAP47 (protein, UniProt Q5SQN1 1-464)
chain: MRAARRGLHCAGAERPRRRGRLWDSSGVPQRQKRPGPWRTQTQEQMSRDVCIHTWPCTYYLEPKRRWVTGQLSLTSLSLRFMTDSTGEILVSFPLSSIVEIKKEASHFIFSSITILEKGHAKHWFSSLRPSRNVVFSIIEHFWRELLLSQPGAVADASVPRTRGEELTGLMAGSQKRLEDTARVLHHQGQQLDSVMRGLDKMESDLEVADRLLTELESPAWWPFSSKLWKTPPETKPREDVSMTSCEPFGKEGILIKIPAVISHRTESHVKPGRLTVLVSGLEIHDSSSLLMHRFEREDVDDIKVHSPYEISIRQRFIGKPDMAYRLISAKMPEVIPILEVQFSKKMELLEDALVLRSARTSSPAEKSCSVWHAASGLMGRTLHREPPAGDQEGTALHLQTSLPALSEADTQELTQILRRMKGLALEAESELERQDEALDGVAAAVDRATLTIDKHNRRMKRLT
B2: Stx8 (protein, UniProt Q9UNK0 1-236)
chain: MAPDPWFSTYDSTCQIAQEIAEKIQQRNQYERKGEKAPKLTVTIRALLQNLKEKIALLKDLLLRAVSTHQITQLEGDRRQNLLDDLVTRERLLLASFKNEGAEPDLIRSSLMSEEAKRGAPNPWLFEEPEETRGLGFDEIRQQQQKIIQEQDAGLDALSSIISRQKQMGQEIGNELDEQNEIIDDLANLVENTDEKLRNETRRVNMVDRKSASCGMIMVILLLLVAIVVVAVWPTN
B3: VTI1B (protein, UniProt Q9UEU0 1-232)
chain: MASSAASSEHFEKLHEIFRGLHEDLQGVPERLLGTAGTEEKKKLIRDFDEKQQEANETLAEMEEELRYAPLSFRNPMMSKLRNYRKDLAKLHREVRSTPLTATPGGRGDMKYGIYAVENEHMNRLQSQRAMLLQGTESLNRATQSIERSHRIATETDQIGSEIIEELGEQRDQLERTKSRLVNTSENLSKSRKILRSMSRKVTTNKLLLSIIILLELAILGGLVYYKFFRSH
B4: Stx18 (protein, UniProt Q9P2W9 1-335)
chain: MAVDITLLFRASVKTVKTRNKALGVAVGGGVDGSRDELFRRSPRPKGDFSSRAREVISHIGKLRDFLLEHRKDYINAYSHTMSEYGRMTDTERDQIDQDAQIFMRTCSEAIQQLRTEAHKEIHSQQVKEHRTAVLDFIEDYLKRVCKLYSEQRAIRVKRVVDKKRLSKLEPEPNTKTRESTSSEKVSQSPSKDSEENPATEERPEKILAETQPELGTWGDGKGEDELSPEEIQMFEQENQRLIGEMNSLFDEVRQIEGRVVEISRLQEIFTEKVLQQEAEIDSIHQLVVGATENIKEGNEDIREAIKNNAGFRVWILFFLVMCSFSLLFLDWYDS
B5: Snap-α (NAPA gene) (protein, UniProt P54920 1-295)
chain: MDNSGKEAEAMALLAEAERKVKNSQSFFSGLFGGSSKIEEACEIYARAANMFKMAKNWSAAGNAFCQAAQLHLQLQSKHDAATCFVDAGNAFKKADPQEAINCLMRAIEIYTDMGRFTIAAKHHISIAEIYETELVDIEKAIAHYEQSADYYKGEESNSSANKCLLKVAGYAALLEQYQKAIDIYEQVGTNAMDSPLLKYSAKDYFFKAALCHFCIDMLNAKLAVQKYEELFPAFSDSRECKLMKKLLEAHEEQNVDSYTESVKEYDSISRLDQWLTTMLLRIKKTIQGDEEDLR
B6: GOSR2 (protein, UniProt O14653 1-212)
chain: MDPLFQQTHKQVHEIQSCMGRLETADKQSVHIVENEIQASIDQIFSRLERLEILSSKEPPNKRQNARLRVDQLKYDVQHLQTALRNFQHRRHAREQQERQREELLSRTFTTNDSDTTIPMDESLQFNSSLQKVHNGMDDLILDGHNILDGLRTQRLTLKGTQKKILDIANMLGLSNTVMRLIEKRAFQDKYFMIGGMLLTCVVMFLVVQYLT
B7: Beta Galactosidase GLB1 (enzyme, UniProt P16278 29-677)
chain: QRMFEIDYSRDSFLKDGQPFRYISGSIHYSRVPRFYWKDRLLKMKMAGLNAIQTYVPWNFHEPWPGQYQFSEDHDVEYFLRLAHELGLLVILRPGPYICAEWEMGGLPAWLLEKESILLRSSDPDYLAAVDKWLGVLLPKMKPLLYQNGGPVITVQVENEYGSYFACDFDYLRFLQKRFRHHLGDDVVLFTTDGAHKTFLKCGALQGLYTTVDFGTGSNITDAFLSQRKCEPKGPLINSEFYTGWLDHWGQPHSTIKTEAVASSLYDILARGASVNLYMFIGGTNFAYWNGANSPYAAQPTSYDYDAPLSEAGDLTEKYFALRNIIQKFEKVPEGPIPPSTPKFAYGKVTLEKLKTVGAALDILCPSGPIKSLYPLTFIQVKQHYGFVLYRTTLPQDCSNPAPLSSPLNGVHDRAYVAVDGIPQGVLERNNVITLNITGKAGATLDLLVENMGRVNYGAYINDFKGLVSNLTLSSNILTDWTIFPLDTEDAVRSHLGGWGHRDSGHHDEAWAHNSSNYTLPAFYMGNFSIPSGIPDLPQDTFIQFPGWTKGQVWINGFNLGRYWPARGPQLTLFVPQHILMTSAPNTITVLELEWAPCSSDDPELCAVTFVDRPVIGSSVTYDHPSKPVEKRLMPPPPQKNKDSWLDHV

What was measured:
Assay in all cases: affinity purification with mass spectrometry
[1] = molecular target: T1, GFP-tagged human Ykt6 phospho-ablative mutant (S174A) (human) (UniProt O15498)
T1 sequence: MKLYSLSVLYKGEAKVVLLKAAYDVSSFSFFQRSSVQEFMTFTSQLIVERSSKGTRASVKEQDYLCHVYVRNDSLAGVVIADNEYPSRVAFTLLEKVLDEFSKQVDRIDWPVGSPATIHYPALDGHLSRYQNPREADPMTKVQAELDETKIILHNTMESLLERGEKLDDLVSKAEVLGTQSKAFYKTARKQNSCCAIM

[2] = molecular target: T2, GFP-tagged human Ykt6 phospho-mimetic mutant (S174D) (human) (UniProt O15498)
T2 sequence: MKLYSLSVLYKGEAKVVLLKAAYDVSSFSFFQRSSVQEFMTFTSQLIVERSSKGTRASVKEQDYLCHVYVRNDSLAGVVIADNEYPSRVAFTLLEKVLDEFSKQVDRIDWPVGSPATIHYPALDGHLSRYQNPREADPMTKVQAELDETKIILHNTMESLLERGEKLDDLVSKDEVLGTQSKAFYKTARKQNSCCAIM

[3] = molecular target: T3, GFP-tagged wild-type (WT) human Ykt6 (human) (UniProt O15498)
T3 sequence: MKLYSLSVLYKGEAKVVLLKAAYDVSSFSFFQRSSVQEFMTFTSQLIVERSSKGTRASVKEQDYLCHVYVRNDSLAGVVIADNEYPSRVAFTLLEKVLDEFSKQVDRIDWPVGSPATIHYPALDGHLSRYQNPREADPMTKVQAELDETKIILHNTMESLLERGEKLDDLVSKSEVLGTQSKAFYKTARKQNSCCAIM

| binding [1] | binding [2] | binding [3] | Molecule |
| --- | --- | --- | --- |
| binds | – | – | Stx17 (from UniProt P56962 1-302) |
| binds | binds | – | vesicle fusion ATPase NSF (from UniProt P46459 1-744) (enzyme) |
| binds | binds | binds | NBAS (from UniProt A2RRP1 1-2371) |
| – | binds | binds | B1 |
| – | binds | binds | B2 |
| – | binds | binds | B3 |
| binds | binds | binds | B4 |
| binds | binds | binds | B5 |
| binds | binds | binds | B6 |
| – | no binding | binds | B7 |

No constants are given. Whether binding was seen depends on the method and setting. In cells and extracts the contact can be indirect. A yes stands for co-enrichment or nearness to the bait. Other partners may have been found. For some assays here: A no says only that the protein was not detected with the bait. Sequences can lack the tags named with a protein.
